Source: PMC10967774
No constants are given. Whether binding was seen depends on the method and setting. Binding seen in cells or lysates may run through a third protein. Some entries that bind do so weakly or less than the wild type. Sequences can lack the tags named with a protein.

T1: WRKY53 fused to a half of YFP (pBiFCt-2in1-NN) (Arabidopsis thaliana) (UniProt Q9SUP6)
T1 sequence: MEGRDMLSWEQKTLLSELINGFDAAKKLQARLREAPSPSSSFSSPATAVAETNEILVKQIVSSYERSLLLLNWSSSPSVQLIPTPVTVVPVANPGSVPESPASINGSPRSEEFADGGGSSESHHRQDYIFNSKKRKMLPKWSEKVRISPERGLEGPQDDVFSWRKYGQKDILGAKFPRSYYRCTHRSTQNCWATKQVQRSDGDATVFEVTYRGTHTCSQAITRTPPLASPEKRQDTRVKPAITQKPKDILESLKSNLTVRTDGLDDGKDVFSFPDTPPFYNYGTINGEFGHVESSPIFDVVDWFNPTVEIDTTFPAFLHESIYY

B1: CAT2 subunit fused to a half of YFP (pBiFCt-2in1-NN) (enzyme, UniProt P25819 1-492)
chain: MDPYKYRPASSYNSPFFTTNSGAPVWNNNSSMTVGPRGPILLEDYHLVEKLANFDRERIPERVVHARGASAKGFFEVTHDISNLTCADFLRAPGVQTPVIVRFSTVIHERGSPETLRDPRGFAVKFYTREGNFDLVGNNFPVFFIRDGMKFPDMVHALKPNPKSHIQENWRILDFFSHHPESLNMFTFLFDDIGIPQDYRHMDGSGVNTYMLINKAGKAHYVKFHWKPTCGVKSLLEEDAIRVGGTNHSHATQDLYDSIAAGNYPEWKLFIQIIDPADEDKFDFDPLDVTKTWPEDILPLQPVGRMVLNKNIDNFFAENEQLAFCPAIIVPGIHYSDDKLLQTRVFSYADTQRHRLGPNYLQLPVNAPKCAHHNNHHEGFMNFMHRDEEVNYFPSRYDQVRHAEKYPTPPAVCSGKRERCIIEKENNFKEPGERYRTFTPERQERFIQRWIDALSDPRITHEIRSIWISYWSQADKSLGQKLASRLNVRPSI
B2: CAT3 subunit fused to a half of YFP (pBiFCt-2in1-NN) (enzyme, UniProt Q42547 1-492)
chain: MDPYKYRPSSAYNAPFYTTNGGAPVSNNISSLTIGERGPVLLEDYHLIEKVANFTRERIPERVVHARGISAKGFFEVTHDISNLTCADFLRAPGVQTPVIVRFSTVVHERASPETMRDIRGFAVKFYTREGNFDLVGNNTPVFFIRDGIQFPDVVHALKPNPKTNIQEYWRILDYMSHLPESLLTWCWMFDDVGIPQDYRHMEGFGVHTYTLIAKSGKVLFVKFHWKPTCGIKNLTDEEAKVVGGANHSHATKDLHDAIASGNYPEWKLFIQTMDPADEDKFDFDPLDVTKIWPEDILPLQPVGRLVLNRTIDNFFNETEQLAFNPGLVVPGIYYSDDKLLQCRIFAYGDTQRHRLGPNYLQLPVNAPKCAHHNNHHEGFMNFMHRDEEINYYPSKFDPVRCAEKVPTPTNSYTGIRTKCVIKKENNFKQAGDRYRSWAPDRQDRFVKRWVEILSEPRLTHEIRGIWISYWSQADRSLGQKLASRLNVRPSI
B3: APX1 fused to a half of YFP (pBiFCt-2in1-NN) (enzyme, UniProt Q05431 1-250)
chain: MTKNYPTVSEDYKKAVEKCRRKLRGLIAEKNCAPIMVRLAWHSAGTFDCQSRTGGPFGTMRFDAEQAHGANSGIHIALRLLDPIREQFPTISFADFHQLAGVVAVEVTGGPDIPFHPGREDKPQPPPEGRLPDATKGCDHLRDVFAKQMGLSDKDIVALSGAHTLGRCHKDRSGFEGAWTSNPLIFDNSYFKELLSGEKEGLLQLVSDKALLDDPVFRPLVEKYAADEDAFFADYAEAHMKLSELGFADA

molecular target: T1, WRKY53 fused to a half of YFP (pBiFCt-2in1-NN) (Arabidopsis thaliana); assay: split reporter; ratiometric BiFC (YFP halves, pBiFCt-2in1-NN, internal RFP control) in transiently transformed Arabidopsis protoplasts; read by flow cytometry (CytoFLEX) 1 day after transfection

binding, binds:
B1
B2
B3

molecular target: T1, WRKY53 fused to a half of YFP (pBiFCt-2in1-NN) (Arabidopsis thaliana); assay: split reporter; ratiometric BiFC (YFP halves, pBiFCt-2in1 constructs, internal RFP control) in Agrobacterium-infiltrated N. benthamiana leaves; confocal microscopy 2 days after infiltration

binding, binds:
B1
B2
B3
